{"source": "PubChem BioAssay AID504804 – Drosophila RNAi Screening Center – 2011", "test": "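dsRNAs that improve Kc cell survival under doxorubicin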 (primary screen)", "cells": "Drosophila Kc cells", "knock-down reagent": "long dsRNA against Drosophila genes, 0.5 µg dsRNA per well", "duration": "96 h (48 h knock-down, then 48 h drug)", "treatment": "doxorubicin 5 µg/ml for 48 h, added 48 h after dsRNA", "measurement": "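Viability measured as cellular ATP by luminescence after 48 h knock-down then 48 h doxorubicin at 5 µg/ml; unnormalised plate counts for each replicate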", "scale": "raw ATP luminescence: higher = more viable cells, protection from doxorubicin", "hit rule": "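z-score of 2 or more over plate mean in both duplicates, retained only when retests and separate dsRNAs confirm the protection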", "note": "The deposit covers about 19,000 reagents; this is an unselected part of those that have a named target and a result. Of all reagents, 47 (0.25%) were called active. 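Signals are raw, not normalised; exact z-scores behind calls not deposited; actives needed confirmation, so some wells reaching 2 SD are inactive.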 Unmarked entries are inactive."}
{"gene knocked down": "jim", "dsRNA": "DRSC11889", "raw ATP luminescence, replicate 1": 40070, "raw ATP luminescence, replicate 2": 29360}
{"gene knocked down": "Pvf3 (PDGF- and VEGF-related factor 3)", "dsRNA": "DRSC02284", "raw ATP luminescence, replicate 1": 22427, "raw ATP luminescence, replicate 2": 25487}
{"gene knocked down": "Pvf3 (PDGF- and VEGF-related factor 3)", "dsRNA": "DRSC02285", "SD above plate mean": "at least 2 SD above plate mean (active)", "raw ATP luminescence, replicate 1": 22760, "raw ATP luminescence, replicate 2": 30590}
{"gene knocked down": "Pvf3 (PDGF- and VEGF-related factor 3)", "dsRNA": "DRSC02286", "raw ATP luminescence, replicate 1": 26670, "raw ATP luminescence, replicate 2": 28130}
{"gene knocked down": "Pvf3 (PDGF- and VEGF-related factor 3)", "dsRNA": "DRSC02751", "raw ATP luminescence, replicate 1": 20423, "raw ATP luminescence, replicate 2": 23583}
{"gene knocked down": "CG3663", "dsRNA": "DRSC04402", "raw ATP luminescence, replicate 1": 50873, "raw ATP luminescence, replicate 2": 52857}
{"gene knocked down": "Ibf2 (Insulator binding factor 2)", "dsRNA": "DRSC16551", "raw ATP luminescence, replicate 1": 38007, "raw ATP luminescence, replicate 2": 31927}
{"gene knocked down": "CG3704", "dsRNA": "DRSC18174", "raw ATP luminescence, replicate 1": 45340, "raw ATP luminescence, replicate 2": 46130}
{"gene knocked down": "CG3704", "dsRNA": "DRSC18645", "raw ATP luminescence, replicate 1": 70230, "raw ATP luminescence, replicate 2": 64570}
{"gene knocked down": "Ggamma1 (G protein gamma subunit 1)", "dsRNA": "DRSC07435", "raw ATP luminescence, replicate 1": 66810, "raw ATP luminescence, replicate 2": 68700}
{"gene knocked down": "CG4884", "dsRNA": "DRSC15671", "raw ATP luminescence, replicate 1": 48890, "raw ATP luminescence, replicate 2": 59640}
{"gene knocked down": "Ipo9 (Importin 9)", "dsRNA": "DRSC16813", "raw ATP luminescence, replicate 1": 61740, "raw ATP luminescence, replicate 2": 63040}
{"gene knocked down": "CG5276", "dsRNA": "DRSC15759", "raw ATP luminescence, replicate 1": 58073, "raw ATP luminescence, replicate 2": 55667}
{"gene knocked down": "CCAP (Crustacean cardioactive peptide)", "dsRNA": "DRSC15674", "raw ATP luminescence, replicate 1": 53890, "raw ATP luminescence, replicate 2": 67890}
{"gene knocked down": "Tim17a2", "dsRNA": "DRSC12252", "raw ATP luminescence, replicate 1": 50920, "raw ATP luminescence, replicate 2": 52983}
{"gene knocked down": "Noc1 (Nucleolar complex protein 1)", "dsRNA": "DRSC10921", "raw ATP luminescence, replicate 1": 48590, "raw ATP luminescence, replicate 2": 37717}
{"gene knocked down": "lncRNA:CR42646 (long non-coding RNA:CR42646)", "dsRNA": "DRSC04759", "raw ATP luminescence, replicate 1": 1.08e5, "raw ATP luminescence, replicate 2": 91237}

Part of the list above, limited to “raw ATP luminescence, replicate 2”.
Pvf3 (PDGF- and VEGF-related factor 3) [DRSC02284] = 25487
Pvf3 (PDGF- and VEGF-related factor 3) [DRSC02285] = 30590 (active)
Pvf3 (PDGF- and VEGF-related factor 3) [DRSC02286] = 28130
Pvf3 (PDGF- and VEGF-related factor 3) [DRSC02751] = 23583

Next reagents:
{"gene knocked down": "CG10466", "dsRNA": "DRSC02060", "raw ATP luminescence, replicate 1": 28823, "raw ATP luminescence, replicate 2": 25703}
{"gene knocked down": "fd102C (forkhead domain 102C)", "dsRNA": "DRSC17203", "raw ATP luminescence, replicate 1": 69750, "raw ATP luminescence, replicate 2": 57540}
{"gene knocked down": "mud (mushroom body defect)", "dsRNA": "DRSC19019", "raw ATP luminescence, replicate 1": 2.59e5, "raw ATP luminescence, replicate 2": 2.68e5}
{"gene knocked down": "HSPBAP1 (HSPB1 associated protein 1)", "dsRNA": "DRSC14567", "raw ATP luminescence, replicate 1": 39290, "raw ATP luminescence, replicate 2": 44190}
{"gene knocked down": "CG15258", "dsRNA": "DRSC02478", "raw ATP luminescence, replicate 1": 65917, "raw ATP luminescence, replicate 2": 81793}
{"gene knocked down": "CG30083", "dsRNA": "DRSC05572", "raw ATP luminescence, replicate 1": 1.16e5, "raw ATP luminescence, replicate 2": 1.39e5}
{"gene knocked down": "Cpr49Ae (Cuticular protein 49Ae)", "dsRNA": "DRSC07201", "raw ATP luminescence, replicate 1": 63240, "raw ATP luminescence, replicate 2": 61260}
{"gene knocked down": "Usp10 (Ubiquitin specific protease 10)", "dsRNA": "DRSC08282", "raw ATP luminescence, replicate 1": 60353, "raw ATP luminescence, replicate 2": 64497}
{"gene knocked down": "Or85e (retired record)", "dsRNA": "DRSC16768", "raw ATP luminescence, replicate 1": 63877, "raw ATP luminescence, replicate 2": 57343}
{"gene knocked down": "dos", "dsRNA": "DRSC07992", "raw ATP luminescence, replicate 1": 42893, "raw ATP luminescence, replicate 2": 1.59e5}
{"gene knocked down": "CRAT (Carnitine O-Acetyl-Transferase)", "dsRNA": "DRSC12523", "raw ATP luminescence, replicate 1": 56850, "raw ATP luminescence, replicate 2": 57590}
